Measured data: PubChem BioAssay AID720505 (Drosophila RNAi Screening Center, 2013)

- Assay: 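Knock-downs that reduce calcium influx once internal stores are emptied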 (primary screen)
- Cell system: Drosophila S2R+ cells
- Reagent: long dsRNA against Drosophila genes
- Conditions: thapsigargin (2 µM) in calcium-free buffer to empty internal stores, then 2 mM calcium added back
- Measurement: 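Stores emptied by 2 µM thapsigargin without calcium, then 2 mM calcium re-added; fluo-4 fluorescence followed by FLIPR in 384-well plates, per-well averaged endpoint, raw; two screen passes, some wells retested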
- Reading the numbers: calcium signal and retest calcium signal: higher = more calcium entry after store depletion
- Active means: 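Knock-downs counted as hits when calcium entry dropped relative to STIM1 positive and Rho1 negative controls present on each plate; roughly 1500 genes called, with reductions of differing size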
- Calls: active = called as lowering calcium entry; inactive = not called
The deposit covers about 20,000 reagents; below is an unselected part of those with a known target gene and a result. Over the whole deposit, about 2,100 (10%) are marked active. 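Raw plate signals without normalisation; calls rest on control-based scores that were not deposited; replicate 2 separates called from uncalled poorly.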 A number with no mark means an inactive call. Names joined by + are all predicted targets of the reagent. Not stated in the record: the amount of reagent, the time to read-out.

no.	gene	dsRNA	calcium signal, replicate 1	calcium signal, replicate 2	retest calcium signal, replicate 1	retest calcium signal, replicate 2
1	Jon65Aii	DRSC10665	67.9	66.8		
2	CG32100	DRSC09725	113	83.1		
3	CG32100	DRSC10331	117	82.5		
4	Atg10 + CG18853 + CG12822	DRSC20757	81.2	9169		
5	CG4970	DRSC02796	143	166		
6	Vha26	DRSC12371	95.5	121		
7	Ufsp2	DRSC10231	124	86.9		
8	Vm32E	DRSC03474	165	108		
9	Sp7	DRSC15461	135	148		
10	CG40583 (retired record)	DRSC20938	50.9 (active)	14370		
11	CG33477	DRSC22934	90.7	131		
12	CG3078	DRSC18531	127	198		
13	CG6073	DRSC15962	59.1 (active)	147	124	141
14	CG6073	DRSC22742	101	209		
15	Hr96	DRSC16707	181	296		
16	Cnx14D	DRSC20214	103	95.8		
17	CG14569	DRSC11730	112	171		
18	CG13950	DRSC00368	99.3	173		
19	CG13454	DRSC10001	104	132		
20	HPS4	DRSC06906	141	138		
21	CG11267	DRSC09833	102	99.4		
22	CG33454	DRSC22914	107	187		
23	brat	DRSC03497	103	146		
24	CG12384	DRSC06145	124	120	106	116

Records above called active (2):
gene	dsRNA	calcium signal, replicate 1	calcium signal, replicate 2	retest calcium signal, replicate 1	retest calcium signal, replicate 2
CG40583 (retired record)	DRSC20938	50.9 (active)	14370		
CG6073	DRSC15962	59.1 (active)	147	124	141

The results go on:
no.	gene	dsRNA	calcium signal, replicate 1	calcium signal, replicate 2	retest calcium signal, replicate 1	retest calcium signal, replicate 2
25	CG12057	DRSC17797	76.6 (active)	121		
26	CG5079	DRSC15713	156	148		
27	CG5079	DRSC23061	94.1	140		
28	Cyp313a1	DRSC16624	103	135		
29	uzip	DRSC04722	127	84.1		
30	betaNACtes6	DRSC22925	132	202		
31	RpS28a	DRSC15064	185	153		
32	Vps33B	DRSC15722	73.9	106		
33	ACXC	DRSC00846	111	108		
34	Usp2	DRSC20590	89.8	12748		
35	Usp2	DRSC20632	172	118		
36	Usp2	DRSC20633	127	97.2		
37	Lerp	DRSC14750	126	118		
38	Lerp	DRSC14751	92.8	109		
39	Lerp	DRSC16030	105	125		
40	Lerp	DRSC16031	111	135		
41	Dhrs4	DRSC09773	72.1 (active)	69.7		
42	CG6153	DRSC02935	91	106		
43	Cp7Fa	DRSC18032	200	89.3		
44	Cp7Fa	DRSC18033	220	110		
45	Lasp	DRSC10379	84.8 (active)	87.3		
46	CG6398	DRSC19992	183	164		
47	CG31441	DRSC15723	125	108		
48	CG30156	DRSC04959	73.9 (active)	91.5		
49	CG17440	DRSC18126	83.3	78.6		
50	Spec2 (retired record)	DRSC12258	112	180		
51	Spec2 (retired record)	DRSC22886	100	174		
52	nop5	DRSC03582	150	98.1		
53	fzr	DRSC18781	299	126		
54	Pk34A	DRSC03398	98.4	133		
55	Syx16	DRSC20507	144	132		
56	CG13293	DRSC09967	112	93.1		
